Record: PubChem BioAssay AID602196 (INSERM, 2012)
The whole screen tested about 23,000 reagents; this is a part drawn at random. 455 of them (2%) were called active. 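Active includes both protection and sensitisation; some change values fall well beyond the stated -50 to +50 range.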 Not all columns of the deposit are shown. Not given: the amount of reagent.

- Screen: 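Knock-downs that protect lung cancer cells from cisplatin or sensitise them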
- System: human A549 lung cancer cells
- Reagents: siRNA pair against human genes
- Timing: 48 h transfection before cisplatin; time from cisplatin to read-out not stated
- Conditions: cisplatin at a dose killing half of control-siRNA cells; exact dose and duration not given
- Detection: 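Cisplatin cell death as a shift from the 50% death seen with control siRNA; siRNAs toxic or growth-blocking alone scored 0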
- Scale: two-siRNA summed score (-2 to +2): higher = both siRNAs protect from cisplatin killing; -2 means both sensitise; mean protection from cisplatin (shift in death): higher = protection from cisplatin killing
- Hit rule: 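siRNAs harmful alone (LDH or WST-1) get 0; others get +1 for less and -1 for more cisplatin killing; genes are active when the two siRNAs give the same sign, summing to ±2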
- Meaning of the calls: active = both siRNAs shift cisplatin killing the same way; inactive = no consistent shift, or siRNA harmful alone

{"Gene": "PCNX4 (pecanex 4)", "two-siRNA summed score (-2 to +2)": 0, "mean protection from cisplatin (shift in death) (%)": 2.2, "outcome": "inactive"}
{"Gene": "SGK2 (serum/glucocorticoid regulated kinase 2)", "two-siRNA summed score (-2 to +2)": 0, "mean protection from cisplatin (shift in death) (%)": 5, "outcome": "inactive"}
{"Gene": "DCAF12 (DDB1 and CUL4 associated factor 12)", "two-siRNA summed score (-2 to +2)": 0, "mean protection from cisplatin (shift in death) (%)": -6.3, "outcome": "inactive"}
{"Gene": "CEP72 (centrosomal protein 72)", "two-siRNA summed score (-2 to +2)": -1, "mean protection from cisplatin (shift in death) (%)": -13.4, "outcome": "inactive"}
{"Gene": "ADAM7 (ADAM metallopeptidase domain 7)", "two-siRNA summed score (-2 to +2)": 0, "mean protection from cisplatin (shift in death) (%)": 10.8, "outcome": "inactive"}
{"Gene": "N4BP1 (NEDD4 binding protein 1)", "two-siRNA summed score (-2 to +2)": 0, "mean protection from cisplatin (shift in death) (%)": -2, "outcome": "inactive"}
{"Gene": "PRNP (prion protein (Kanno blood group))", "two-siRNA summed score (-2 to +2)": 0, "mean protection from cisplatin (shift in death) (%)": -10.3, "outcome": "inactive"}
{"Gene": "SLITRK2 (SLIT and NTRK like family member 2)", "two-siRNA summed score (-2 to +2)": 0, "mean protection from cisplatin (shift in death) (%)": 6.6, "outcome": "inactive"}
{"Gene": "LSMEM1 (leucine rich single-pass membrane protein 1)", "two-siRNA summed score (-2 to +2)": 1, "mean protection from cisplatin (shift in death) (%)": 16.5, "outcome": "inactive"}
{"Gene": "BCRP2 (BCR pseudogene 2)", "two-siRNA summed score (-2 to +2)": -1, "mean protection from cisplatin (shift in death) (%)": -0.4, "outcome": "inactive"}
{"Gene": "LOC440510", "two-siRNA summed score (-2 to +2)": 1, "mean protection from cisplatin (shift in death) (%)": 13, "outcome": "inactive"}
{"Gene": "KRTAP4-7 (keratin associated protein 4-7)", "two-siRNA summed score (-2 to +2)": 0, "mean protection from cisplatin (shift in death) (%)": 6.8, "outcome": "inactive"}
{"Gene": "PSG2 (pregnancy specific beta-1-glycoprotein 2)", "two-siRNA summed score (-2 to +2)": -1, "mean protection from cisplatin (shift in death) (%)": -2.9, "outcome": "inactive"}
{"Gene": "FLJ45966", "two-siRNA summed score (-2 to +2)": 1, "mean protection from cisplatin (shift in death) (%)": 10.1, "outcome": "inactive"}
{"Gene": "TAAR5 (trace amine associated receptor 5)", "two-siRNA summed score (-2 to +2)": 0, "mean protection from cisplatin (shift in death) (%)": 5.1, "outcome": "inactive"}
{"Gene": "CATSPERD (catsper channel auxiliary subunit delta)", "two-siRNA summed score (-2 to +2)": 2, "mean protection from cisplatin (shift in death) (%)": 17.2, "outcome": "active"}
{"Gene": "TRIM4 (tripartite motif containing 4)", "two-siRNA summed score (-2 to +2)": 1, "mean protection from cisplatin (shift in death) (%)": 21.5, "outcome": "inactive"}
{"Gene": "MYOM1 (myomesin 1)", "two-siRNA summed score (-2 to +2)": 0, "mean protection from cisplatin (shift in death) (%)": 6.1, "outcome": "inactive"}
{"Gene": "TBC1D13 (TBC1 domain family member 13)", "two-siRNA summed score (-2 to +2)": 0, "mean protection from cisplatin (shift in death) (%)": 0.6, "outcome": "inactive"}

4 successive records from above:
{"Gene": "SLITRK2 (SLIT and NTRK like family member 2)", "two-siRNA summed score (-2 to +2)": 0, "mean protection from cisplatin (shift in death) (%)": 6.6, "outcome": "inactive"}
{"Gene": "LSMEM1 (leucine rich single-pass membrane protein 1)", "two-siRNA summed score (-2 to +2)": 1, "mean protection from cisplatin (shift in death) (%)": 16.5, "outcome": "inactive"}
{"Gene": "BCRP2 (BCR pseudogene 2)", "two-siRNA summed score (-2 to +2)": -1, "mean protection from cisplatin (shift in death) (%)": -0.4, "outcome": "inactive"}
{"Gene": "LOC440510", "two-siRNA summed score (-2 to +2)": 1, "mean protection from cisplatin (shift in death) (%)": 13, "outcome": "inactive"}

Next reagents follow:
{"Gene": "DGCR6L (DiGeorge syndrome critical region gene 6 like)", "two-siRNA summed score (-2 to +2)": 0, "mean protection from cisplatin (shift in death) (%)": 10.9, "outcome": "inactive"}
{"Gene": "F13B (coagulation factor XIII B chain)", "two-siRNA summed score (-2 to +2)": 0, "mean protection from cisplatin (shift in death) (%)": 13.3, "outcome": "inactive"}
{"Gene": "LOC389866", "two-siRNA summed score (-2 to +2)": 1, "mean protection from cisplatin (shift in death) (%)": 15, "outcome": "inactive"}
{"Gene": "RBM46 (RNA binding motif protein 46)", "two-siRNA summed score (-2 to +2)": 1, "mean protection from cisplatin (shift in death) (%)": 14.2, "outcome": "inactive"}
{"Gene": "NATD1 (N-acetyltransferase domain containing 1)", "two-siRNA summed score (-2 to +2)": 1, "mean protection from cisplatin (shift in death) (%)": 7.8, "outcome": "inactive"}
{"Gene": "KLHL21 (kelch like family member 21)", "two-siRNA summed score (-2 to +2)": -1, "mean protection from cisplatin (shift in death) (%)": -4.8, "outcome": "inactive"}
{"Gene": "POM121L12 (POM121 transmembrane nucleoporin like 12)", "two-siRNA summed score (-2 to +2)": 0, "mean protection from cisplatin (shift in death) (%)": -7.8, "outcome": "inactive"}
{"Gene": "MS4A6A (membrane spanning 4-domains A6A)", "two-siRNA summed score (-2 to +2)": 0, "mean protection from cisplatin (shift in death) (%)": -22.2, "outcome": "inactive"}
{"Gene": "BRCA1 (BRCA1 DNA repair associated)", "two-siRNA summed score (-2 to +2)": 0, "mean protection from cisplatin (shift in death) (%)": -14.3, "outcome": "inactive"}
{"Gene": "TCF15 (transcription factor 15)", "two-siRNA summed score (-2 to +2)": 0, "mean protection from cisplatin (shift in death) (%)": -9.9, "outcome": "inactive"}
{"Gene": "PKD1L1", "two-siRNA summed score (-2 to +2)": 1, "mean protection from cisplatin (shift in death) (%)": 22.1, "outcome": "inactive"}
{"Gene": "SAFB2 (scaffold attachment factor B2)", "two-siRNA summed score (-2 to +2)": 0, "mean protection from cisplatin (shift in death) (%)": 0, "outcome": "inactive"}
